Results: patent US11007274B2, “Compounds for medicinal applications” (Ausvir Therapeutics Pty LTD, priority 2015, dated 2021)

System: kinases
Test: KINOME scan profiling (Table 41)
Conditions: at 100 nM

In the case of `CC(=O)N[C@H]1[C@H]([C@H](OC(=O)NCCCCCCCCCNC(=O)c2cc(C(=O)NCCCCCCCCCNC(=O)O[C@@H]([C@@H]3OC(C(=O)O)=C[C@H](NC(=N)N)[C@H]3NC(C)=O)[C@H](O)CO)c(C(=O)N[C@H](CC(=O)NCS(=O)(=O)O)C(=O)NCS(=O)(=O)O)cc2C(=O)N[C@H](CC(=O)NCS(=O)(=O)O)C(=O)NCS(=O)(=O)O)[C@H](O)CO)OC(C(=O)O)=C[C@@H]1NC(=N)N` [MD185, PK2PYR(Zn)2[(D-Asp)(NHCH2SO3)2]2], the “interaction between compounds and kinases” value is reported as “no significant interaction”.
